Assay results reported in the supplement of paper PMC8728848.
The list shows a part of the results.

Experiments:
Assay in all cases: glycan array binding signal (z-score within array); higher = stronger binding
Details in all cases: glycan notation: IUPAC condensed, linker removed
[1] = target: Fuc(a1-2)Gal(b1-4)GlcNAc(b1-3)Gal(b1-4)GlcNAc(b1-3)Gal(b1-4)GlcNAc
In short: (§1)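 Glycan array data were curated from 3228 arrays in the Consortium for Functional Glycomics database and kept only where the protein sequence was available. Glycan names were converted to IUPAC-condensed notation, and columns mapping to the same glycan were averaged. The binding signal is a within-array Z-score, averaged across arrays of the same protein sequence at different concentrations or buffers and across linkers. Negative Z-scores can be read as non-binding.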

[2] = target: Fuc(a1-2)Gal(b1-4)GlcNAc(b1-3)GalNAc
In short: as §1

[3] = target: Fuc(a1-2)Gal(b1-4)GlcNAc(b1-3)[Fuc(a1-2)Gal(b1-4)GlcNAc(b1-6)]GalNAc
In short: as §1

[4] = target: Fuc(a1-2)Gal(b1-4)GlcNAc(b1-3)[Fuc(a1-3)[Gal(b1-4)]GlcNAc(b1-6)]Gal(b1-4)Glc
In short: as §1

[5] = target: Fuc(a1-2)Gal(b1-4)GlcNAc(b1-6)GalNAc
In short: as §1

[6] = target: Fuc(a1-2)Gal(b1-4)GlcNAc6S
In short: as §1

[7] = target: Fuc(a1-2)Gal(b1-4)[Fuc(a1-3)]GlcNAc
In short: as §1

[8] = target: Fuc(a1-2)Gal(b1-4)[Fuc(a1-3)]GlcNAc(b1-2)Man(a1-3)[Fuc(a1-2)Gal(b1-4)[Fuc(a1-3)]GlcNAc(b1-2)Man(a1-6)]Man(b1-4)GlcNAc(b1-4)[Fuc(a1-6)]GlcNAc
In short: as §1

[9] = target: Fuc(a1-2)Gal(b1-4)[Fuc(a1-3)]GlcNAc(b1-2)[Fuc(a1-2)Gal(b1-4)[Fuc(a1-3)]GlcNAc(b1-4)]Man(a1-3)[Fuc(a1-2)Gal(b1-4)[Fuc(a1-3)]GlcNAc(b1-2)Man(a1-6)]Man(b1-4)GlcNAc(b1-4)GlcNAc
In short: as §1

[10] = target: Fuc(a1-2)Gal(b1-4)[Fuc(a1-3)]GlcNAc(b1-3)Gal(b1-4)[Fuc(a1-3)]GlcNAc
In short: as §1

[11] = target: Fuc(a1-2)Gal(b1-4)[Fuc(a1-3)]GlcNAc(b1-3)Gal(b1-4)[Fuc(a1-3)]GlcNAc(b1-3)Gal(b1-4)[Fuc(a1-3)]GlcNAc
In short: as §1

[12] = target: Fuc(a1-2)Gal(b1-4)[Fuc(a1-3)]GlcNAc(b1-3)GalNAc
In short: as §1

[13] = target: Fuc(a1-2)Gal(b1-4)[Fuc(a1-3)]GlcNAc(b1-3)[Neu5Ac(a2-6)Gal(b1-4)GlcNAc(b1-6)]Gal(b1-4)Glc
In short: as §1

[14] = target: Fuc(a1-2)Gal3S(b1-4)GlcNAc
In short: as §1

[15] = target: Fuc(a1-2)Gal6S(b1-3)GlcNAc
In short: as §1

[16] = target: Fuc(a1-2)Gal6S(b1-3)GlcNAc6S
In short: as §1

[17] = target: Fuc(a1-2)Gal6S(b1-4)Glc
In short: as §1

[18] = target: Fuc(a1-2)Gal6S(b1-4)Glc6S
In short: as §1

[19] = target: Fuc(a1-2)[Gal(a1-3)]Gal
In short: as §1

[20] = target: Fuc(a1-2)[Gal(a1-3)]Gal(b1-3)GalNAc
In short: as §1

[21] = target: Fuc(a1-2)[Gal(a1-3)]Gal(b1-3)GalNAc(b1-3)Gal(a1-4)Gal(b1-4)Glc
In short: as §1

[22] = target: Fuc(a1-2)[Gal(a1-3)]Gal(b1-3)GlcNAc
In short: as §1

[23] = target: Fuc(a1-2)[Gal(a1-3)]Gal(b1-3)GlcNAc(b1-2)Man(a1-3)[Fuc(a1-2)[Gal(a1-3)]Gal(b1-3)GlcNAc(b1-2)Man(a1-6)]Man(b1-4)GlcNAc(b1-4)GlcNAc
In short: as §1

[24] = target: Fuc(a1-2)[Gal(a1-3)]Gal(b1-3)GlcNAc(b1-2)Man(a1-3)[Fuc(a1-2)[Gal(a1-3)]Gal(b1-3)GlcNAc(b1-2)Man(a1-6)]Man(b1-4)GlcNAc(b1-4)[Fuc(a1-6)]GlcNAc
In short: as §1

[25] = target: Fuc(a1-2)[Gal(a1-3)]Gal(b1-3)GlcNAc(b1-3)GalNAc
In short: as §1

[26] = target: Fuc(a1-2)[Gal(a1-3)]Gal(b1-3)GlcNAc(b1-6)GalNAc
In short: as §1

[27] = target: Fuc(a1-2)[Gal(a1-3)]Gal(b1-4)Glc
In short: as §1

[28] = target: Fuc(a1-2)[Gal(a1-3)]Gal(b1-4)GlcNAc
In short: as §1

[29] = target: Fuc(a1-2)[Gal(a1-3)]Gal(b1-4)GlcNAc(b1-2)Man
In short: as §1

[30] = target: Fuc(a1-2)[Gal(a1-3)]Gal(b1-4)GlcNAc(b1-2)Man(a1-3)[Fuc(a1-2)[Gal(a1-3)]Gal(b1-4)GlcNAc(b1-2)Man(a1-6)]Man(b1-4)GlcNAc(b1-4)GlcNAc
In short: as §1

B1: SJCP1084 (Schistosoma japonicum) (protein)
chain: MRIINLVIISTALLLINLLQTKSQANGEDTKNGTPDDPGLTKSTELKVEVQALLKDKKTNMRVKWNENLLDNTKPEYHNLRDEACELLLQIVRSVVPLSQDDGECKDVTFTKYVVGTKDGAVNVKLTITFKDSVAINQKPMDLKLKLENDFKNLQSESTLKATKPTFTVKVEKRLIPISKPQTTPPTTAKNDASKENVGDIGGEDSTVPTAAPATAASANEEKDEGDKDNKDSQHPNVLTSNVNDRNLIIALVALMILAIGVALTAAVKQR
glycan array binding signal (z-score) [1]: -0.128 | glycan array binding signal (z-score) [2]: 0.22 | glycan array binding signal (z-score) [3]: -0.052 | glycan array binding signal (z-score) [4]: 0.781 | glycan array binding signal (z-score) [5]: -1.1 | glycan array binding signal (z-score) [6]: -0.159 | glycan array binding signal (z-score) [7]: -0.299 | glycan array binding signal (z-score) [8]: -0.091 | glycan array binding signal (z-score) [9]: -0.415 | glycan array binding signal (z-score) [10]: 1.23 | glycan array binding signal (z-score) [11]: -0.222 | glycan array binding signal (z-score) [12]: -0.35 | glycan array binding signal (z-score) [13]: -0.645 | glycan array binding signal (z-score) [14]: -1.04 | glycan array binding signal (z-score) [15]: -1.55 | glycan array binding signal (z-score) [16]: -0.42 | glycan array binding signal (z-score) [17]: 2.12 | glycan array binding signal (z-score) [18]: -0.396 | glycan array binding signal (z-score) [19]: 0.332 | glycan array binding signal (z-score) [20]: 0.032 | glycan array binding signal (z-score) [21]: -0.223 | glycan array binding signal (z-score) [22]: -0.098 | glycan array binding signal (z-score) [23]: 0.322 | glycan array binding signal (z-score) [24]: -0.939 | glycan array binding signal (z-score) [25]: -1.17 | glycan array binding signal (z-score) [26]: -1.16 | glycan array binding signal (z-score) [27]: -0.198 | glycan array binding signal (z-score) [28]: -0.059 | glycan array binding signal (z-score) [29]: -1.21 | glycan array binding signal (z-score) [30]: 0.795
